Hit rate of the full screen: of about 6,900 compounds, fewer than 10 were called active. Calls follow the shape of the dose curve; as a rule, active = well fitted curve in the direction sought with a large enough effect; inconclusive = small, poorly fitted or top-dose-only effect, or another doubt; inactive = no such curve, though single readings can be large or run the other way. The list shows a part of the results.
molecular target: Metallo-beta-lactamase type 2 (Klebsiella pneumoniae) (UniProt C7C422); experiment: qHTS to identify inhibitors of the New Delhi Metallo-beta-lactamase (NDM): primary screen against the NCATS Gemini Collection; conditions: NDM-1 enzyme, meropenem hydrolysis, absorbance 300 nm; at 38.4 µM (top of the series) unless noted; also: % of control where 0% means no effect
Summary of the method: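 Meropenem hydrolysis (50 uM final) by 2 nM NDM-1 read as 300 nm absorbance after 30 min, following >30 min compound–enzyme preincubation in HEPES pH 7.0 with 1 uM ZnSO4 and 0.01% Tween20.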

Sequences of proteins named here, by UniProt entry; tags and fusion partners are left off. A change or cut given only in a name is not applied to a line headed by its entry.
UniProt C7C422: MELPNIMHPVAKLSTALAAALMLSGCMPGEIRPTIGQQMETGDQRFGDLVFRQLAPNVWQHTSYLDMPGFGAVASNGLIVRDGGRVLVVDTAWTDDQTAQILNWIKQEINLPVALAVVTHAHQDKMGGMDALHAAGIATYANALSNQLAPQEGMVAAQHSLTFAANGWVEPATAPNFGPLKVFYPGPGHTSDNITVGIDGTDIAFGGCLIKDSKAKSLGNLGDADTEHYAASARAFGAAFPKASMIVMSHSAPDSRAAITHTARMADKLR

Activity % (negative = inhibition), inactive:
O=C(Nc1ccnn1C1CCN(Cc2ccc(-c3ccccc3)cc2)CC1)C1CC1 3.38%
FC(F)(F)c1cccc(-c2nccn3c(C4CN(Cc5ccc6cn[nH]c6c5)C4)ncc23)c1 33.2%
CCCNc1cc(N2CCC(CCC(=O)NCCN3CCCCCC3)CC2)ncn1 1.19%
COCCOCC(=O)N1CCCN(Cc2ccncc2)C(c2ccccc2)CC(=O)NCC1 (stereo not drawn) 0.853%
COc1ccc(C(C)NC(=O)c2cc3n(n2)CC(c2ccc(Cl)cc2)OC3)cc1OC (stereo not drawn) 15.8%
O=C(NCc1ccco1)C1CC(c2ccccc2)CN(C(=O)Nc2ccc(Cl)cc2)C1 (stereo not drawn) 1.23%
CCOC(=O)C1=CN(CC(=O)Nc2ccccc2C(F)(F)F)S(=O)(=O)N=C1C 7.85%
CN1CCC2(CCC1=O)CN(C(=O)c1ccc(Cn3cccn3)o1)CCN2C (stereo not drawn) 14.8%
CC1(c2noc(-c3cccnc3)n2)CCN(C(=O)CCC(=O)n2ncc3c(Cl)cccc32)CC1 -2.35%
Cc1noc(-c2ccco2)c1C(=O)NC(C)c1ccccc1 (stereo not drawn) 49.3%
CCn1cc(S(=O)(=O)N2C[C@@H](Oc3ccccc3)C[C@H]2C(=O)N2CCCC2)cn1 19.8%
Cc1cc(C(=O)N2C[C@@H](CN3CCCCCC3)[C@@H](CO)C2)nc(C)n1 4.96%
O=[S+]([O-])(c1ccccc1)N1CC2(CCCCN2Cc2cccnc2)Cc2ccccc21 (stereo not drawn) 6.86%
Cc1ccccc1-n1cc(CNC(=O)C(c2cccc(F)c2)N(C)C)cn1 (stereo not drawn) -0.586%
CN(CC1CCOC1)S(=O)(=O)c1cccs1 (stereo not drawn) 0.158%
COCCOc1cc(C)c2c(c1C)C[C@H](C(C)C(=O)NCc1cccs1)CC2 (stereo partly drawn) -0.141% [at 57.5 µM]
O=C(N[C@@H]1CCOC[C@H]1OCc1cscn1)c1ccccc1-n1cccn1 -1.09%
O=C(c1n[nH]c2c1CCCC2)N1CCCC2(C1)Nc1cccnc1NC2=NC1CCCC1 (stereo not drawn) 12.3%
CNC(=O)c1cc(C)nc2onc(C3CCCN3C(=O)C(C)(C)C)c12 (stereo not drawn) -1.19%
Cc1ccc(C(=O)N2CCC(C(=O)N3CCC(N4CCCC4=O)CC3)CC2)cc1 -1.35%
CCc1ccc(S(=O)(=O)N2[C@@H]3CC[C@H]2CC(NC(=O)c2ccc(F)cc2)C3)cc1 (stereo partly drawn) 0.104%
Cn1nc(CN2CCOCC2)c2c1CCN(S(=O)(=O)c1cccnc1)C2 -1.1%
COc1ccc(CN2CCNC(=O)C2CC(=O)NCc2ccncc2)cc1OC (stereo not drawn) 11.3%
CC(=O)N1CCN(Cc2snnc2C(C)C)CC(O)C1 (stereo not drawn) 9.42%
COc1ccc(C(=O)N[C@H](C)c2c(-c3ccc(F)cc3)noc2C(=O)O)cc1 10.9% [at 57.5 µM]
Cc1ccc(OCc2nc(C3CCN(S(=O)(=O)Cc4ccccc4F)C3)no2)cc1 (stereo not drawn) -4.14%
CCCn1cc(C(=O)N2C[C@@H](N(C)C)[C@H](c3ccc(C)cc3)C2)c(C)n1 5.42%
c1cnc(N2CCOCC2)c(OC2CCNC2)n1 (stereo not drawn) 2.33%
CC(C)Cc1cc(C(=O)N2CCc3[nH]nc(-c4ccccc4)c3C2)nc(=O)[nH]1 34.9%
C=CCN(C)C(=O)[C@@H](C)C1CC[C@@]2(C)Cc3sc(CSc4ccccc4)nc3[C@@H](C)[C@@H]2[C@H]1O (stereo partly drawn) 1.83%
CN1C[C@@H](NC(=O)NC2CCCCC2)C[C@H]1c1nc(-c2cnccn2)no1 -2.36% [at 57.5 µM]
COc1ccc(NC(=O)c2nc3sccn3c2-c2cccc(OC)c2)cc1 27.7%
Cc1noc(-c2ccccc2OC2CCNC2)n1 (stereo not drawn) 4.04%
CN1CCOC[C@H]2CCN(C(=O)c3cccs3)C[C@H]21 8.25%
CNC(=O)N1CCC(C2CCN(C(=O)Cc3c(F)cccc3Cl)C2)CC1 (stereo not drawn) -6.12%
COc1ccc(CNC(=O)[C@@H]2Cc3nc[nH]c3CN2C(=O)NC(C)C)cc1 4.18% [at 57.5 µM]
O=C(Nc1cccc(F)c1)N1Cc2[nH]cnc2C[C@H]1c1nc(-c2ccncc2)no1 -10% [at 57.5 µM]
CN1CCC(OC2CCN(C(=O)COc3ccc(Cl)cc3)CC2)CC1 -0.0934%
COc1cccc(CC(=O)N2CCCC3(C2)NC(=O)N(Cc2cccc(Cl)c2)C3=O)c1 (stereo not drawn) 2.89%
CCn1c(CC2CCN(Cc3ccccc3C#N)CC2)nn(C)c1=O -0.151%
Cc1cc(Cn2cc3c4c(cccc42)[C@H](CC(C)C)N[C@H](C(=O)NC2CCCC2)C3)no1 9.91% [at 57.5 µM]
COCc1nnc2n1CCC(NC(=O)C1(c3ccc(OC)cc3)CC1)CC2 (stereo not drawn) -1.84%
NC(=O)[C@@H](Cc1ccccc1)NC(=O)[C@@H]1C[C@@H](NS(=O)(=O)c2cccs2)CCN1C(=O)CSCC(=O)O 0.756%
CC(C)C1CN(C(=O)CNC(=O)N(C)C)CCCN1Cc1ccc(F)cc1 (stereo not drawn) 0.0087%
CN1CCCCC(CC(=O)NCc2cc(F)ccc2F)C1=O (stereo not drawn) 26.1%
C=CCNC(=O)C[C@@H]1CCN(C(=O)c2cccnc2)C[C@@H]1CC 41.7% [at 57.5 µM]
Cc1ccsc1C(=O)N1CCc2nnc([C@@H]3C[C@@H](O)CN3C(C)C)n2CC1 0.912%
CCc1nnc(CN2CCC(C(=O)Nc3cccc(-c4ccco4)c3)CC2)o1 9.16%
O=C(C(=O)N1CCc2[nH]nc(-c3ccccc3F)c2C1)c1ccco1 15%
Cn1nc(-c2nc(C3CCOC3)no2)cc1-c1ccccc1 (stereo not drawn) -2.22%
O[C@@H]1C[C@@H](c2nc(-c3ccccn3)no2)N(Cc2cc3ccccc3o2)C1 0.714% [at 57.5 µM]
Cc1cc(=O)n(CC(=O)N2CCCC(C)(c3ccccc3)C2)nc1C (stereo not drawn) 5.67%
CN(C)Cc1cc(CC2(NCc3cccc4c3OCO4)COC2)no1 0.728% [at 57.5 µM]

Part of the list above in order of SMILES length, rising:
Activity % (negative = inhibition), inactive:
Cn1nc(-c2nc(C3CCOC3)no2)cc1-c1ccccc1 (stereo not drawn) -2.22%
COCc1nnc2n1CCC(NC(=O)C1(c3ccc(OC)cc3)CC1)CC2 (stereo not drawn) -1.84%
NC(=O)[C@@H](Cc1ccccc1)NC(=O)[C@@H]1C[C@@H](NS(=O)(=O)c2cccs2)CCN1C(=O)CSCC(=O)O 0.756%

From PubChem BioAssay AID1794845 (National Center for Advancing Translational Sciences (NCATS), 2023)
